Data: patent US20110245242A1, “Heterocyclically Substituted Anilinopyrimides” (Bayer CropScience AG, priority 2008, published 2011)
Where two headings read alike, the source gives them in different places. Some results were stated once for a whole list of compounds, not compound by compound.

What was measured:
Venturia inaequalis = experiment: Venturia test (apple)/protective; type: in vivo; settings: active compound concentration of 100 ppm, protective, evaluation 10 days after the inoculation
Puccinia triticina = Puccinia triticina test (wheat)/protective; type: in vivo; settings: active compound concentration of 500 ppm, protective, evaluation 8 days after the inoculation
Alternaria solani = experiment: Alternaria test (tomato)/protective; type: in vivo; settings: active compound concentration of 500 ppm, protective, evaluation 7 days after the inoculation
Gibberella zeae = type: in vivo
Sphaerotheca fuliginea = experiment: Sphaerotheca test (cucumber)/protective; type: in vivo; settings: active compound concentration of 500 ppm, protective, evaluation 7 days after the inoculation
Rhizoctonia solani = experiment: Rhizoctonia test (rice)/protective; type: in vivo; settings: active compound concentration of 250 ppm, protective, evaluation 4 days after the inoculation
Pyricularia oryzae = type: in vivo
Fusarium graminearum = type: cell-based; settings: at 50 μM; 7 days at 28° C.
Botrytis cinerea = experiment: Botrytis test (bean)/protective; type: in vivo; settings: active compound concentration of 250 ppm, protective, evaluated 2 days after the inoculation
[1] = active compound concentration of 250 ppm, protective, rice, evaluation 5 days after the inoculation

| Compound | efficacy (Venturia inaequalis) [%] | efficacy (Puccinia triticina) [%] | efficacy (Alternaria solani) [%] | efficacy (Sphaerotheca fuliginea) [%] | efficacy (Rhizoctonia solani) [%] | efficacy (Pyricularia oryzae; in vivo) [%] | also measured |
| --- | --- | --- | --- | --- | --- | --- | --- |
| CC1CCN(c2cccc(Nc3ncc(Br)c(NC4CCC4)n3)c2)C1=O (centres unmarked) [Example 27] | ≥ 70 | ≥ 70 | ≥ 70 | ≥ 70 | ≥ 80 | ≥ 80 | efficacy (Gibberella zeae; in vivo): ≥ 80% |
| CC(C)Nc1nc(Nc2cccc(N3C(=O)C(C)CC3C)c2)ncc1Cl (centres unmarked) [Example 141] | ≥ 70 | ≥ 70 | ≥ 70 | ≥ 70 | ≥ 80 | ≥ 80 | activity in the inhibition of DON/AcDON (Fusarium graminearum): > 80% |
| CC1COC(=O)N1c1cccc(Nc2ncc(Cl)c(NCC(F)(F)F)n2)c1 (centres unmarked) [Example 169] |  |  | ≥ 70 |  |  |  | activity in the inhibition of DON/AcDON (Fusarium graminearum): > 80% |
| CCC1CC(C)C(=O)N1c1cccc(Nc2ncc(Cl)c(NC3CC3)n2)c1 (centres unmarked) [Example 206, 1-(3-{[5-Chloro-4-(cyclopropylamino)pyrimidin-2-yl]amino}phenyl)-5-ethyl-3-methylpyrrolidin-2-one] |  |  |  |  |  |  | efficacy (Pyricularia oryzae; [1]): ≥ 80% |
| CC1CC(=O)N(c2cccc(Nc3ncc(Cl)c(NC4CCC4)n3)c2)C1 (centres unmarked) [Example 97] |  |  |  |  | ≥ 80 | ≥ 80 |  |
| CC1CC(C)N(c2cccc(Nc3ncc(Cl)c(NCC(F)F)n3)c2)C1=O (centres unmarked) [Example 157] |  |  |  |  | ≥ 80 | ≥ 80 |  |
| CCC1COC(=O)N1c1cccc(Nc2ncc(Cl)c(NC3CC3)n2)c1 (centres unmarked) [Example 31] | ≥ 70 | ≥ 70 | ≥ 70 | ≥ 70 |  |  | activity in the inhibition of DON/AcDON (Fusarium graminearum): > 80% |
| CC1CCN(Cc2cccc(Nc3ncc(Cl)c(NC4CC4)n3)c2)C1=O (centres unmarked) [Example 234] | ≥ 70 |  | ≥ 70 | ≥ 70 | ≥ 80 | ≥ 80 |  |
| CC1CCC(=O)N1c1cccc(Nc2ncc(Cl)c(N(C)C3CC3)n2)c1 (centres unmarked) [Example 180] | ≥ 70 |  | ≥ 70 | ≥ 70 |  |  | efficacy (Botrytis cinerea): ≥ 70%; activity in the inhibition of DON/AcDON (Fusarium graminearum): > 80% |
| COC(=O)C1CC(=O)N(c2cccc(Nc3ncc(Cl)c(NC4CC4)n3)c2)C1 (centres unmarked) [Example 137] |  |  | ≥ 70 |  |  |  |  |
| CC(C)Nc1nc(Nc2cccc(N3C(=O)CCC3C)c2)ncc1Br (centres unmarked) [Example 152] |  |  | ≥ 70 | ≥ 70 | ≥ 80 | ≥ 80 |  |
| CC1CCC(=O)N1c1cccc(Nc2ncc(Cl)c(NC3CC3)n2)c1 (centres unmarked) [Example 30] | ≥ 70 | ≥ 70 |  | ≥ 70 | ≥ 80 | ≥ 80 |  |
| CC1CCN(c2cccc(Nc3ncc(Br)c(NC4CC4)n3)c2)C1=O (centres unmarked) [Example 187] | ≥ 70 | ≥ 70 | ≥ 70 | ≥ 70 |  |  | efficacy (Botrytis cinerea): ≥ 70% |
| O=C1OCCN1c1cccc(Nc2ncc(Cl)c(NC3CCC3)n2)c1 [Example 59, 3-(3-{[5-Chloro-4-(cyclobutylamino)pyrimidin-2-yl]amino}phenyl)-1,3-oxazolidin-2-one] |  |  |  |  |  |  | efficacy (Pyricularia oryzae; [1]): ≥ 80% |
| CC1COC(=O)N1c1cccc(Nc2ncc(Br)c(NCC3CC3)n2)c1 (centres unmarked) [Example 131] |  |  | ≥ 70 | ≥ 70 |  |  |  |
| S=C1CCCN1c1cccc(Nc2ncc(Cl)c(NC3CC3)n2)c1 [Example 33, 1-(3-{[5-Chloro-4-(cyclopropylamino)pyrimidin-2-yl]amino}phenyl)pyrrolidine-2-thione] |  |  |  |  |  |  | efficacy (Gibberella zeae; [1]): ≥ 80% |
| CC(C)Nc1nc(Nc2cccc(N3C(=O)OCC3C)c2)ncc1Cl (centres unmarked) [Example 139] | ≥ 70 |  |  | ≥ 70 |  | ≥ 80 | efficacy (Botrytis cinerea): ≥ 70%; activity in the inhibition of DON/AcDON (Fusarium graminearum): > 80% |
| CC(C)Nc1nc(Nc2cccc(N3CCOC3=O)c2)ncc1Br [Example 146] |  |  | ≥ 70 |  | ≥ 80 | ≥ 80 |  |
| CCOC(=O)[C@@H]1CCC(=O)N1c1cccc(Nc2ncc(Cl)c(NC3CC3)n2)c1 [Example 190, Ethyl 1-(3-{[5-chloro-4-(cyclopropylamino)pyrimidin-2-yl]amino}phenyl)-5-oxo-L-prolinate] |  |  |  |  |  |  | efficacy (Gibberella zeae; [1]): ≥ 80% |

| Compound | efficacy (Venturia inaequalis) [%] | efficacy (Puccinia triticina) [%] | efficacy (Alternaria solani) [%] | efficacy (Sphaerotheca fuliginea) [%] | efficacy (Rhizoctonia solani) [%] | efficacy (Pyricularia oryzae; in vivo) [%] | also measured |
| --- | --- | --- | --- | --- | --- | --- | --- |
| COCC(C)Nc1nc(Nc2cccc(N3C(=O)CC(C)C3=O)c2)ncc1Cl (centres unmarked) [Example 68] | ≥ 70 | ≥ 70 | ≥ 70 |  | ≥ 80 | ≥ 80 |  |
| CCC1=C(C)CN(c2cccc(Nc3ncc(Cl)c(NC4CC4)n3)c2)C1=O [Example 224] | ≥ 70 |  | ≥ 70 | ≥ 70 |  |  | efficacy (Botrytis cinerea): ≥ 70% |
| CC1COC(=O)N1c1cccc(Nc2ncc(Cl)c(NC3CCC3)n2)c1 (centres unmarked) [Example 57] | ≥ 70 | ≥ 70 | ≥ 70 | ≥ 70 | ≥ 80 | ≥ 80 |  |
| CC(C)Nc1nc(Nc2cccc(N3CCOC3=O)c2)ncc1Cl [Example 138] |  |  | ≥ 70 | ≥ 70 |  |  | activity in the inhibition of DON/AcDON (Fusarium graminearum): > 80% |
| CC1CC1Nc1nc(Nc2cccc(N3CCCC3=O)c2)ncc1Cl (centres unmarked) [Example 315] |  | ≥ 70 |  |  |  |  |  |
| CCC(C)Nc1nc(Nc2cccc(N3CCCC3=O)c2)ncc1Cl (centres unmarked) [Example 8] | ≥ 70 | ≥ 70 |  | ≥ 70 |  |  |  |
| CC1COC(=O)N1c1cccc(Nc2ncc(Br)c(NC3CCC3)n2)c1 (centres unmarked) [Example 56] | ≥ 70 | ≥ 70 |  | ≥ 70 | ≥ 80 | ≥ 80 |  |
| O=C1CCCCCN1c1cccc(Nc2ncc(Br)c(NC3CC3)n2)c1 [Example 54] | ≥ 70 | ≥ 70 |  |  | ≥ 80 | ≥ 80 |  |
| 1-(3-{[4-(Cyclopropylamino)-5-(trifluoromethyl)pyrimidin-2-yl]amino}phenyl)pyrrolidin-2-one [Example 236] |  |  |  |  |  |  | activity in the inhibition of DON/AcDON (Fusarium graminearum): > 80% |
| CC1CCN(c2cccc(Nc3ncc(Cl)c(NC4CC4)n3)c2)C1=O (centres unmarked) [Example 26] | ≥ 70 | ≥ 70 |  | ≥ 70 | ≥ 80 | ≥ 80 | efficacy (Botrytis cinerea): ≥ 70% |
| O=C1OCCN1c1cccc(Nc2ncc(C(F)(F)F)c(NC3CCC3)n2)c1 [Example 194] |  |  |  | ≥ 70 |  |  |  |
| CC1CC1Nc1nc(Nc2cccc(N3CCCC3=O)c2)ncc1Cl (centres unmarked) [Example 200] |  |  | ≥ 70 | ≥ 70 | ≥ 80 | ≥ 80 | efficacy (Botrytis cinerea): ≥ 70%; activity in the inhibition of DON/AcDON (Fusarium graminearum): > 80% |
| CC1(C)CC(=O)N(c2cccc(Nc3ncc(C(F)(F)F)c(NC4CC4)n3)c2)C1=O [Example 62] | ≥ 70 | ≥ 70 |  |  |  |  |  |
| CC1CC1Nc1nc(Nc2cccc(N3C(=O)OCC3C)c2)ncc1Cl (centres unmarked) [Example 215] | ≥ 70 | ≥ 70 | ≥ 70 | ≥ 70 | ≥ 80 | ≥ 80 | efficacy (Botrytis cinerea): ≥ 70% |
| CC1(C)CC(=O)N(c2cccc(Nc3ncc(Cl)c(NC4CC4(C)C)n3)c2)C1=O (centres unmarked) [Example 122] | ≥ 70 |  | ≥ 70 |  | ≥ 80 | ≥ 80 |  |
| CC(C)Nc1nc(Nc2cccc(N3C(=O)CCC3C)c2)ncc1Cl (centres unmarked) [Example 144] |  |  | ≥ 70 | ≥ 70 | ≥ 80 | ≥ 80 |  |
| CC(C)Nc1nc(Nc2cccc(N3C(=O)C(C)CC3C)c2)ncc1Br (centres unmarked) [Example 149] | ≥ 70 |  |  | ≥ 70 | ≥ 80 | ≥ 80 | efficacy (Botrytis cinerea): ≥ 70% |
| CN(c1nc(Nc2ccc(F)c(N3CCCC3=O)c2)ncc1Cl)C1CC1 [Example 198] | ≥ 70 | ≥ 70 | ≥ 70 | ≥ 70 | ≥ 80 |  | activity in the inhibition of DON/AcDON (Fusarium graminearum): > 80% |
